In publication PMC4231743 one finds binding data, which are given here for 12 molecules.

Protein sequences, listed by entry. Tags and fused reporters are not part of them.
UniProt Q9WTL8: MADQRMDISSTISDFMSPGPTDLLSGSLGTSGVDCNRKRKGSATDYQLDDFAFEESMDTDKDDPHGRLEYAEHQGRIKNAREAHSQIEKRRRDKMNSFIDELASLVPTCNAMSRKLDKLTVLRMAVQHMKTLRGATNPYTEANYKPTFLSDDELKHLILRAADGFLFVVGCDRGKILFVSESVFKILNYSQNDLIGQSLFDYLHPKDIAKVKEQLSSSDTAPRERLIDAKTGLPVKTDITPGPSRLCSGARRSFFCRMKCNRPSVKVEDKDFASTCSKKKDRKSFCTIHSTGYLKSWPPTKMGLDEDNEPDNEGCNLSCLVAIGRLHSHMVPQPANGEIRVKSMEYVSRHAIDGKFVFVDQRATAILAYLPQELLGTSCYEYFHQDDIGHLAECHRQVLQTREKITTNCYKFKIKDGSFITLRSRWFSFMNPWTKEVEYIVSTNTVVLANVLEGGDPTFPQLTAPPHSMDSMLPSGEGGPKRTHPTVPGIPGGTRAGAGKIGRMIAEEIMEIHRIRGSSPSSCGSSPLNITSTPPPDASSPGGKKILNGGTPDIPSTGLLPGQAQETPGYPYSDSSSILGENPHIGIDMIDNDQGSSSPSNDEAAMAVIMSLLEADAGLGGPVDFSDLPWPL
UniProt O00327: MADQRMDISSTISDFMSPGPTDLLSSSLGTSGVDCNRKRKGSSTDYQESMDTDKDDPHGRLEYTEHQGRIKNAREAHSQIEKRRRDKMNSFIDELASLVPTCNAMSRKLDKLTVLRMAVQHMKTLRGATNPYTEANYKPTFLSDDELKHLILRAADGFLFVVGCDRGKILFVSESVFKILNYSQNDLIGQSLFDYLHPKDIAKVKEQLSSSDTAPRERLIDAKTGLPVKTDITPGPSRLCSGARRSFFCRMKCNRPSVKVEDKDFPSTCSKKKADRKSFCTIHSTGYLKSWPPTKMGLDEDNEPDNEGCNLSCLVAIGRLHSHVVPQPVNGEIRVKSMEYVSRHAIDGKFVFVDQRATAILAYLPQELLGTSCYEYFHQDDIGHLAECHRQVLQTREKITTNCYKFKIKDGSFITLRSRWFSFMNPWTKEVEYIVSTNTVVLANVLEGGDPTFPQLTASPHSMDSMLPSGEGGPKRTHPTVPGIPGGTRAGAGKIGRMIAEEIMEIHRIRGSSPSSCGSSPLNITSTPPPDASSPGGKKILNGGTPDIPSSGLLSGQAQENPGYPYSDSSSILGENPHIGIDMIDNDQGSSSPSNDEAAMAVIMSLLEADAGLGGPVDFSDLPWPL
UniProt O54943: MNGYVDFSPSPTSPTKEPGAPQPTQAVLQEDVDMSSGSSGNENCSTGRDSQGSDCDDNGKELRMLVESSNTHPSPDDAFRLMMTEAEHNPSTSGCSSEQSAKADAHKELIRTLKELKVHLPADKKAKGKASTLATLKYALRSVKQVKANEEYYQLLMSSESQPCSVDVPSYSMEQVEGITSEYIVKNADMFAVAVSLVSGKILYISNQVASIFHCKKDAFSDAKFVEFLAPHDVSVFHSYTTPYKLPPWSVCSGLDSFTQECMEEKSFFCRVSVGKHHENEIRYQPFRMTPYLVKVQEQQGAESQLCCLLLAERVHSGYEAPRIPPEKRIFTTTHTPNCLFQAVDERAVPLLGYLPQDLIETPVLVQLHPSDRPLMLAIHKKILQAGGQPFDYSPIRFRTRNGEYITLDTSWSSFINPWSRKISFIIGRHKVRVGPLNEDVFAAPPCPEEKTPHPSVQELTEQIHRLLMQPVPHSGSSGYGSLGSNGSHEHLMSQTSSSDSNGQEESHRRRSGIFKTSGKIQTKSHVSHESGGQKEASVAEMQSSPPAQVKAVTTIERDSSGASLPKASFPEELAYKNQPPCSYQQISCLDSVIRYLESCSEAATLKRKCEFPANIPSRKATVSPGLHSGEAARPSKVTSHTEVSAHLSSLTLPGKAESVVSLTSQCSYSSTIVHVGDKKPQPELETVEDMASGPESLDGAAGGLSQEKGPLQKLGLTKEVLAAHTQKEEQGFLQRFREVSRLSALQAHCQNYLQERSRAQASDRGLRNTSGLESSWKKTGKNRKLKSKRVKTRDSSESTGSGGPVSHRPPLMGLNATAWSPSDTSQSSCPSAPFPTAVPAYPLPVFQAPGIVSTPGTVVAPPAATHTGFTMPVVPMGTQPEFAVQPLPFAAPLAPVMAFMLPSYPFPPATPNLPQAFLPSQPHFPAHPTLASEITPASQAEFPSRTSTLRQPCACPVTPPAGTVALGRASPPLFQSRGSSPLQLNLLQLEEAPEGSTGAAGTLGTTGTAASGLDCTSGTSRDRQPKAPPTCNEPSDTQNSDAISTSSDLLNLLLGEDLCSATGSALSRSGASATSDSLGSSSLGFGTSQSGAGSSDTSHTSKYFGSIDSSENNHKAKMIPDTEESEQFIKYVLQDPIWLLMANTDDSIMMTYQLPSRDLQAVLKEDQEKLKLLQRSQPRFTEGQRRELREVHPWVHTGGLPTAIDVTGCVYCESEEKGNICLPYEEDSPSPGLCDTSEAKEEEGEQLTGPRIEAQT

Changes are numbered by the printed parent chain. In names and notes the source's numbering stands. Results are given in words; binding and its absence hold for the method and conditions named. For part of these data: Binding seen in cells or lysates may run through a third protein. Some entries that bind do so weakly or less than the wild type. For part of these data: Where a sequence is shown, tags or fusion partners need not be part of it.

For assay [1], the target named is T1, Flag-PXDLS*3 peptide (expressed in HEK 293T) (UniProt P37275).
T1 sequence: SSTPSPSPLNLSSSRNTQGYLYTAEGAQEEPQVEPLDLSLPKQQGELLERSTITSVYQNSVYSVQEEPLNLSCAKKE
Briefly: co-IP; Flag tagged transgenes expressed in HEK 293T cells, lysates immunoprecipitated with Flag antibody conjugated beads; endogenous proteins by immunoblot. (In general: In western blotting, separated proteins are transferred to a membrane and probed.)

Assay [2] deals with T2, Flag-PXDLS*3 peptide (expressed in NIH3T3) (UniProt P37275).
T2 sequence: T1 sequence
In words: co-IP; Flag tagged transgenes expressed in NIH3T3 cells, lysates immunoprecipitated with Flag antibody conjugated beads; endogenous proteins by immunoblot.

For assay [3], the target named is T3, GST-PXDLS*3 recombinant peptide (UniProt P37275).
T3 sequence: T1 sequence
In words: pull-down; recombinant GST peptides coupled to glutathione beads, incubated with mouse liver nuclear extracts; SDS-PAGE and immunoblot; only the target purified.

Assay [4] addresses T4, REV-ERBα (endogenous, mouse liver nuclear extract) (mouse (endogenous in liver)) (UniProt Q3UV55).
T4 sequence: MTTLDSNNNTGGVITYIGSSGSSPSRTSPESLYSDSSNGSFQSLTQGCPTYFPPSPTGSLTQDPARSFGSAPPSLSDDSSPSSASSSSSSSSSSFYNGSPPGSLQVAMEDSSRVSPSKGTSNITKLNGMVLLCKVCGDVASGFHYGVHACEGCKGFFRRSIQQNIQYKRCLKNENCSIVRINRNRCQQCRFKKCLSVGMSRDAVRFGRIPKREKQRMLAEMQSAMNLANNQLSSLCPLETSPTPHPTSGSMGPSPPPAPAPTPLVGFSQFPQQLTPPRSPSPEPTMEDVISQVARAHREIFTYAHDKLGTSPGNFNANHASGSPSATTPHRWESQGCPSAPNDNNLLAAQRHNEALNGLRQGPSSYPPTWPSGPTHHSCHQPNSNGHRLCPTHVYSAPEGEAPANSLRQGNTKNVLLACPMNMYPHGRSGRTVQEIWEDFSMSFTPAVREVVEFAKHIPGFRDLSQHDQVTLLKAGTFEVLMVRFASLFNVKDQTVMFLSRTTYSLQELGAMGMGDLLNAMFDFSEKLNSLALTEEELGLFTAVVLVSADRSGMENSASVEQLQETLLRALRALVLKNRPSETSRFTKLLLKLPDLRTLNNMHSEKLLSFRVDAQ
In words: co-IP; mouse liver nuclear extracts (ZT4), immunoprecipitation with anti BMAL1 or anti REV-ERBα antibodies, 12 h at 4°C, protein A/G agarose; Rap1 antibody as negative control.

Assay [5] addresses T1, Flag-PXDLS*3 peptide (expressed in HEK 293T). In words: pull-down; Flag tagged baits expressed in HEK 293T, held on Flag antibody conjugated beads, stringent washes, then incubated with mouse liver nuclear extracts; SDS-PAGE and immunoblot; only the target purified.
Assay [6] addresses BMAL1 (endogenous, mouse liver nuclear extract) (mouse (endogenous in liver)) (UniProt Q9WTL8). Briefly: co-IP; mouse liver nuclear extracts (ZT4), immunoprecipitation with anti BMAL1 or anti REV-ERBα antibodies, 12 h at 4°C, protein A/G agarose; Rap1 antibody as negative control.
Assay [7] has as its target recombinant His-BMAL1 (mouse) (UniProt Q9WTL8). In words: pull-down; recombinant His-BMAL1 coupled to beads and in vitro translated [35S] labeled REV-ERBα in the presence or absence of excess recombinant GST-PXDLS*3 or GST-Mut PXDLS*3 peptide; autoradiography; only the target purified.
The target is the same in assay [8]. Briefly: pull-down; recombinant His-BMAL1 coupled to beads, incubated with in vitro translated [35S] labeled REV-ERBα for 3 h at room temperature, washed with NP40 buffer (150 mM NaCl, 100 mM Tris pH-7.5, 2 mM EDTA, 1%NP40); autoradiography; only the target purified.
For assay [9], the target named is BMAL1-Flag (mouse) (UniProt Q9WTL8). Briefly: co-IP; BMAL1-Flag and REV-ERBα (wild type or P72A) co-expressed in NIH3T3 cells, lysates immunoprecipitated with Flag antibody; Rap1 antibody as control.
For assay [10], the target named is recombinant His-BMAL1 (mouse) (UniProt Q9WTL8). Briefly: pull-down; competition: excess recombinant GST-PXDLS*3 added to His-BMAL1 on beads with in vitro translated [35S] labeled REV-ERBα; read by loss of REV-ERBα; both purified.

For “BMAL1 (endogenous, HEK 293T cells) (from UniProt O00327 1-626)”, the binding result in assay [1] is “binds”. Take “PER2 (endogenous, NIH3T3 cells) (from UniProt O54943 1-1257)”: the binding entry in assay [2] is on record as “no binding”. On to “BMAL1 (endogenous, mouse liver nuclear extract) (from UniProt Q9WTL8 1-632)”, for which the binding entry in assay [3], in assay [4] and in assay [5] was “binds” throughout. Consider “BMAL1 (endogenous, NIH3T3 cells) (from UniProt Q9WTL8 1-632)”, for which the binding entry in assay [2] was “binds”.

B1: CLOCK (endogenous, mouse liver nuclear extract) (protein, UniProt O08785 1-855)
chain: MVFTVSCSKMSSIVDRDDSSIFDGLVEEDDKDKAKRVSRNKSEKKRRDQFNVLIKELGSMLPGNARKMDKSTVLQKSIDFLRKHKETTAQSDASEIRQDWKPTFLSNEEFTQLMLEALDGFFLAIMTDGSIIYVSESVTSLLEHLPSDLVDQSIFNFIPEGEHSEVYKILSTHLLESDSLTPEYLKSKNQLEFCCHMLRGTIDPKEPSTYEYVRFIGNFKSLTSVSTSTHNGFEGTIQRTHRPSYEDRVCFVATVRLATPQFIKEMCTVEEPNEEFTSRHSLEWKFLFLDHRAPPIIGYLPFEVLGTSGYDYYHVDDLENLAKCHEHLMQYGKGKSCYYRFLTKGQQWIWLQTHYYITYHQWNSRPEFIVCTHTVVSYAEVRAERRRELGIEESLPETAADKSQDSGSDNRINTVSLKEALERFDHSPTPSASSRSSRKSSHTAVSDPSSTPTKIPTDTSTPPRQHLPAHEKMTQRRSSFSSQSINSQSVGPSLTQPAMSQAANLPIPQGMSQFQFSAQLGAMQHLKDQLEQRTRMIEANIHRQQEELRKIQEQLQMVHGQGLQMFLQQSNPGLNFGSVQLSSGNSNIQQLTPVNMQGQVVPANQVQSGHISTGQHMIQQQTLQSTSTQQSQQSVMSGHSQQTSLPSQTPSTLTAPLYNTMVISQPAAGSMVQIPSSMPQNSTQSATVTTFTQDRQIRFSQGQQLVTKLVTAPVACGAVMVPSTMLMGQVVTAYPTFATQQQQAQTLSVTQQQQQQQQQPPQQQQQQQQSSQEQQLPSVQQPAQAQLGQPPQQFLQTSRLLHGNPSTQLILSAAFPLQQSTFPPSHHQQHQPQQQQQLPRHRTDSLTDPSKVQPQ
B1: the binding entry in [3], in assay [6], in assay [4] and in assay [5] was “binds” in each case.

B2: CRY1 (endogenous, HEK 293T cells) (protein, UniProt Q16526 1-586)
chain: MGVNAVHWFRKGLRLHDNPALKECIQGADTIRCVYILDPWFAGSSNVGINRWRFLLQCLEDLDANLRKLNSRLFVIRGQPADVFPRLFKEWNITKLSIEYDSEPFGKERDAAIKKLATEAGVEVIVRISHTLYDLDKIIELNGGQPPLTYKRFQTLISKMEPLEIPVETITSEVIEKCTTPLSDDHDEKYGVPSLEELGFDTDGLSSAVWPGGETEALTRLERHLERKAWVANFERPRMNANSLLASPTGLSPYLRFGCLSCRLFYFKLTDLYKKVKKNSSPPLSLYGQLLWREFFYTAATNNPRFDKMEGNPICVQIPWDKNPEALAKWAEGRTGFPWIDAIMTQLRQEGWIHHLARHAVACFLTRGDLWISWEEGMKVFEELLLDADWSINAGSWMWLSCSSFFQQFFHCYCPVGFGRRTDPNGDYIRRYLPVLRGFPAKYIYDPWNAPEGIQKVAKCLIGVNYPKPMVNHAEASRLNIERMKQIYQQLSRYRGLGLLASVPSNPNGNGGFMGYSAENIPGCSSSGSCSQGSGILHYAHGDSQQTHLLKQGRSSMGTGLSGGKRPSQEEDTQSIGPKVQRQSTN
Take B2: the binding entry in assay [1] is recorded as “no binding”.

B3: REV-ERBα (endogenous, mouse liver nuclear extract) (protein, UniProt Q3UV55 1-615)
chain: T4 sequence
In the case of B3, the binding result in assay [6] was “binds”.

B4: in vitro translated [35S] labeled REV-ERBα (protein, UniProt Q3UV55 1-615)
chain: T4 sequence
modifications: [35S] methionine labeled
Take B4: the binding entry in assay [7] and in [8] was “binds” throughout.

B5: REV-ERBα P72A (PXDLS mutant, expressed in NIH3T3) (protein, UniProt Q3UV55 1-615)
chain: T4 sequence with P72A
Consider B5, for which the binding entry in [9] is recorded as “binds”.

B6: REV-ERBα (wild type, expressed in NIH3T3) (protein, UniProt Q3UV55 1-615)
chain: T4 sequence
For the molecule B6, the binding entry in [9] is listed as “binds”.

B7: GST-PXDLS*3 recombinant peptide (peptide, UniProt P37275 700-776)
chain: T1 sequence
On to B7, for which the binding entry in assay [10] was “binds”.

B8: CRY1 (endogenous, NIH3T3 cells) (protein, UniProt P97784 1-606)
chain: MGVNAVHWFRKGLRLHDNPALKECIQGADTIRCVYILDPWFAGSSNVGINRWRFLLQCLEDLDANLRKLNSRLFVIRGQPADVFPRLFKEWNITKLSIEYDSEPFGKERDAAIKKLATEAGVEVIVRISHTLYDLDKIIELNGGQPPLTYKRFQTLVSKMEPLEMPADTITSDVIGKCMTPLSDDHDEKYGVPSLEELGFDTDGLSSAVWPGGETEALTRLERHLERKAWVANFERPRMNANSLLASPTGLSPYLRFGCLSCRLFYFKLTDLYKKVKKNSSPPLSLYGQLLWREFFYTAATNNPRFDKMEGNPICVQIPWDKNPEALAKWAEGRTGFPWIDAIMTQLRQEGWIHHLARHAVACFLTRGDLWISWEEGMKVFEELLLDADWSINAGSWMWLSCSSFFQQFFHCYCPVGFGRRTDPNGDYIRRYLPVLRGFPAKYIYDPWNAPEGIQKVAKCLIGVNYPKPMVNHAEASRLNIERMKQIYQQLSRYRGLGLLASVPSNSNGNGGLMGYAPGENVPSCSSSGNGGLMGYAPGENVPSCSGGNCSQGSGILHYAHGDSQQTHSLKQGRSSAGTGLSSGKRPSQEEDAQSVGPKVQRQSSN
In the case of B8, the binding entry in [2] is “no binding”.
